Experiment [1] deals with A. phagocytophilum invasion protein A residues 1-87 (AipA_(1–87)) extracellular domain, yeast two-hybrid bait (Anaplasma phagocytophilum) (UniProt Q2GJG3). The experiment is described as follows: two-hybrid; ULTImate yeast two-hybrid screen (Hybrigenics Services); AipA_(1–87) bait (C-terminal LexA or GAL4 fusion) mated with yeast bearing a randomly primed human leukocyte cDNA library (prey).

Chains of the proteins cited; added tags and fusions are not shown. Lines headed by an entry give the natural chain unless they say otherwise; changes in a name come on top.
UniProt P15144: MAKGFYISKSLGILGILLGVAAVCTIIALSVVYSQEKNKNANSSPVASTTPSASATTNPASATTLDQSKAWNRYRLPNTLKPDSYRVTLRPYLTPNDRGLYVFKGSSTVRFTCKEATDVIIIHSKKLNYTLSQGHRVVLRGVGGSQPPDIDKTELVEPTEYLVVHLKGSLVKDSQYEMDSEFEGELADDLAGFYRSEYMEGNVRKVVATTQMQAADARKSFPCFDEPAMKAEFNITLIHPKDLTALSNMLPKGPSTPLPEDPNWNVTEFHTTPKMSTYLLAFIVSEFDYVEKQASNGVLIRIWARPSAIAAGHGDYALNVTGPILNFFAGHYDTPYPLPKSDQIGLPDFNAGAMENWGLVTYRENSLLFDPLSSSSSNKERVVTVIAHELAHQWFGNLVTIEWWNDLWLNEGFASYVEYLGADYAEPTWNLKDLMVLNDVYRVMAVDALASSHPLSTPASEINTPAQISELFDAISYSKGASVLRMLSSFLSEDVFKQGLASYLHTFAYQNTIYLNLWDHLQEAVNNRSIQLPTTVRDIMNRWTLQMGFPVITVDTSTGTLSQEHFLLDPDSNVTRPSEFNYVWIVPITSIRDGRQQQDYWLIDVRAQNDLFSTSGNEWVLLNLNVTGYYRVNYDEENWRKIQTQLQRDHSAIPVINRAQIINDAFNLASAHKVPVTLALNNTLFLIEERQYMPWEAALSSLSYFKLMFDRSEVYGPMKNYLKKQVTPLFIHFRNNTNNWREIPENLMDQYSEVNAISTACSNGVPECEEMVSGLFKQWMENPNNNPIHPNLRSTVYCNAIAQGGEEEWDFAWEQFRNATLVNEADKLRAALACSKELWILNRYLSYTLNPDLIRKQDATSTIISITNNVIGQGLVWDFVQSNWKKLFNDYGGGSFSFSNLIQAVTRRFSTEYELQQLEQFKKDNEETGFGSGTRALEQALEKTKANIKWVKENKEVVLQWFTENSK

Experiment [2] deals with Flag-tagged human CD13 (aminopeptidase N) (human) (UniProt P15144). The experiment is described as follows: co-IP; HeLa cells co-transfected with Flag-CD13 and GFP-tagged AipA fragments, 24 h; lysates (50 mM Tris base, 400 nM NaCl as printed, 1 mM EDTA, 1% Triton X-100) precleared with protein A/G agarose, anti-Flag M2 affinity gel at 4°C overnight; western blot for GFP and Flag, GFP signal normalized to Flag. (A western blot detects proteins with antibodies after separation by electrophoresis.)

Here are results for two molecules from publication PMC11481542.

These are yes or no findings as the source states them, for the method shown. For some assays here: In cells and extracts the contact can be indirect. Some results given as binding are weak or reduced against the parent protein; the word gives no strength. For some assays here: Where a sequence is shown, tags or fusion partners need not be part of it.

Consider “CD13 (aminopeptidase N) C-terminal amino acids 851–967, yeast two-hybrid prey fragment (from UniProt P15144 851-967) (domain or fragment)”, for which the binding result in experiment [1] is “binds”.

B1: GFP-tagged AipA residues 2-89 (GFP-AipA_(2–89)) (domain or fragment, UniProt Q2GJG3 2-89)
chain: SFTMSKLSLDPTQGSHTAENIACSIFDMVLGVKSTAKLLAGTWAGTSSTIWKTVTGAASSTKEASSKSYGTLRSSLGSSASRRMLGTC
Take B1: in experiment [2], the binding result was “binds”.
